# Measured values from publication PMC5690286.
# Target: GST-fused C-terminus (residues 668-845) of Atg9 (Drosophila)
# Assay: affinity purification with mass spectrometry; pull-down with GST-fused C-terminus (residues 668-845) of Atg9 as bait, LC-MS/MS of the bound proteins; source of the prey proteins not stated; only the target purified
binder,measurement,value
"Pals1-associated tight junction protein (Patj), identified by LC-MS/MS in the GST-Atg9-C pull-down (protein, UniProt Q9NB04 1-871) MHLSADISSALQQIEAVKKGIDESDDPKLQMQTAESLSTILGILQDPVFRTIVHVQDSLSELNAQLAQHPSMLPNDFDIDVAGNLVLSLNGGEVMYDFDEQRSSSHSHSAPGSPDKSGGVGEEPRPQSQNSKGAGVADLYATDYAQIQAIELVNDGTGLGFGIIGARNSGVIVKTILPGGVADKDGRLRSGDHILQIGDVNLHEMVSEQVAAVLRQSGTHVRLVVARPVEQSVPTPQYALEPGTAVVPTRVLVDPAELERYLISTGYPEIFGESSTASTPQTTTEDDRFVYRGETSMLIDPNIDLEELLALPETEKLQVELKKDANGLGITIAGYVCEKEELSGIFVKSVSPGSAADLSGRIRVNDRIIEVDGQSLQGYSNHQAVELLKKSGQVVNLRLERYLRGPKFEQLQQAIAANDKLPSSAPGTPSRAPMPTPVATTSSATTTPSRSITRELEEEALPAPEAFMTTPPSVTTMTTTTLSSFGAGKQLVAVRDSLDGSTKIIPTEVVPLADKTEAKNSGVITRHKYYTDPELSDDAETEIIRKWQKIVGSDVEVIVAQIKKFAVGGLGISLEGTVDVEGGREVRPHHYIRSILPDGPVGVNGVLRSGDELLEVNGERLLGMNHLEVVAILKELPLDVRMVCGRNRNSSLLPFSDDTLKKLSNNFENLLPATDRLVKAKSDGSLATAGSVADGDSVAAAAASFSKLKSRSLEPLTGLAMWSSQPQIIELVKGDRGLGFSILDYQDPLDPNDTLIVIRSLVPGGVAQLDGRLIPGDRLLFVNSINLENASLDQAVQALKGASKGVVRIGVAKPLPMTDNSLKACSNASTTSEETLDAQPSPPALPTVAPPAMPPSASMGAEPDLIPDWRN",binding,binds

# No constants are given. Whether binding was seen depends on the method and setting. Binding seen in cells or lysates may run through a third protein. A yes stands for co-enrichment or nearness to the bait. Other partners may have been found. Sequences can lack the tags named with a protein.
